Laboratory results from US6943183B2 (Pfizer Inc, priority 2000, dated 2005).
The structures given here were assigned with low confidence; some may be wrong.

The chains behind the UniProt entries cited, without tags or fusion partners.
UniProt Q02293, whole entry: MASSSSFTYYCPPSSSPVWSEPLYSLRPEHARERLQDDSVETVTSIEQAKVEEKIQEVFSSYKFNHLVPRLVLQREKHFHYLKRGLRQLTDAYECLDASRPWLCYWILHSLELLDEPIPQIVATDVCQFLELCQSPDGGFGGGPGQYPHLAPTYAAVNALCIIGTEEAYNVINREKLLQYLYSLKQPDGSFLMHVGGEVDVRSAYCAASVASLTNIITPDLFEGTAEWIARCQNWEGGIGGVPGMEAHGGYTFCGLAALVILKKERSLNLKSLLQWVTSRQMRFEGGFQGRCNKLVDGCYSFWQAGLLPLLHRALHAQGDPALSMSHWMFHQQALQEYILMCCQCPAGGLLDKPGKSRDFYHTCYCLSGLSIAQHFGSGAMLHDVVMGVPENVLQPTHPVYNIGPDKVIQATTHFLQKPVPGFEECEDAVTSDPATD

Biological target: SF9 affinity purified rat FPT (Rattus norvegicus, UniProt Q02293+Q04631)
Experiment: PFT (FPT) inhibitory activity assay, radiolabeled farnesyl pyrophosphate and biotinyl peptide, streptavidin beads
Details: read-out: FTase IC50 nM; HEPES buffer pH 7.4, 30° C., 30 minutes

CCc1cccc(OCc2c(O[C@H](Cn3ccnc3)c3ccccc3)ccc3c2CCCC3=O)c1
IC50: 1 nM
